# Results reported in PMC5033595, “The Effectiveness of Natural Diarylheptanoids against Trypanosoma cruzi: Cytotoxicity, Ultrastructural Alterations and Molecular Modeling Studies” (PLoS ONE, 2016).
# System: T. cruzi epimastigotes
# Assay: Scanning and transmission electron microscopy of treated epimastigotes
# Type: cell-based, Trypanosoma cruzi
# Settings: treated at IC50 concentration, 24-72 h
smiles,measurement,setting,value
"COc1cc(/C=C/C(=O)CC(=O)/C=C/c2ccc(O)c(OC)c2)ccc1O [CUR, Curcumin]",ultrastructural changes of epimastigotes,,disorganized and/or displaced microtubules
same,ultrastructural changes of epimastigotes,listed as curcumin,reduced cell volume
